Measurements reported in PubChem BioAssay AID743458 (Peter MacCallum Cancer Centre, 2014).

- Aim: 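Identify genes whose loss lifts vorinostat resistance in colon cancer cells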 (follow-up of hits)
- Cells: human HCT116-VR colon cancer cells made resistant to vorinostat
- Reagents: single siRNA or pool against human genes, 25 nM per single siRNA
- Timing: about 72 h after transfection, including 24 h of drug
- Challenge: vorinostat, 2.5 µM final, for 24 h
- Measured: 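Live-cell fluorescent viability and luminescent caspase 3/7 activity after vorinostat treatment, background subtracted, mean of duplicate plates, as fold change over mock-transfected wells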
- Direction: viability relative to mock: higher = more living cells than mock; caspase activity relative to mock: higher = more apoptosis than mock
- Active means: 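An siRNA counts as active if classed as reduced viability or as caspase activation, otherwise inactive; a hit class needed wells that remained healthy in the absence of drug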
In all, the deposit lists about 1,800 reagents; below is an unselected part. 732 of them (41%) count as active. 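Calls are per siRNA reagent; a gene was deemed confirmed only if most of its four siRNAs scored.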 Entries without a mark were called inactive. The numbers tell different reagents against one gene apart.

| gene symbol | reagent no. | viability relative to mock | caspase activity relative to mock | viability hit class | caspase hit class |
| --- | --- | --- | --- | --- | --- |
| NPBWR2 | 1 | 0.96 | 1.91 | no change | no change |
| NPBWR2 | 2 | 0.7 (active) | 3.5 | no change | caspase activation |
| NPBWR2 | 3 | 0.78 | 1.06 | no change | no change |
| NPBWR2 | 4 | 0.84 (active) | 2.59 | no change | caspase activation |
| C2orf15 | 1 | 0.32 (active) | 4.51 | reduced viability | caspase activation |
| C2orf15 | 2 | 1 | 1.45 | no change | no change |
| C2orf15 | 3 | 1.14 | 1.96 | no change | no change |
| C2orf15 | 4 | 0.62 | 2 | no change | no change |

Part of the list above, limited to “caspase activity relative to mock”.
C2orf15 #1: 4.51 (active)
C2orf15 #2: 1.45
C2orf15 #3: 1.96
C2orf15 #4: 2

The results go on:
| gene symbol | reagent no. | viability relative to mock | caspase activity relative to mock | viability hit class | caspase hit class |
| --- | --- | --- | --- | --- | --- |
| APOL5 | 1 | 0.55 (active) | 4.81 | reduced viability | caspase activation |
| APOL5 | 2 | 0.77 (active) | 3.35 | no change | caspase activation |
| APOL5 | 3 | 0.86 | 1.48 | no change | no change |
| APOL5 | 4 | 1.02 | 1.45 | no change | no change |
| UBE2M | 1 | 1.04 | 1.16 | no change | no change |
| UBE2M | 2 | 1.02 | 1.31 | no change | no change |
| UBE2M | 3 | 0.8 | 0.78 | no change | no change |
| UBE2M | 4 | 0.88 | 0.82 | no change | no change |
| NPEPPS | 1 | 0.57 | 1.19 | no change | no change |
| NPEPPS | 2 | 0.52 (active) | 1 | reduced viability | no change |
| NPEPPS | 3 | 0.42 (active) | 1.34 | reduced viability | no change |
| NPEPPS | 4 | 0.53 (active) | 1.16 | reduced viability | no change |
| SPAG1 | 1 | 0.9 | 1.04 | no change | no change |
| SPAG1 | 2 | 0.82 | 1.04 | no change | no change |
| SPAG1 | 3 | 0.68 | 0.93 | no change | no change |
| SPAG1 | 4 | 0.12 | 1.37 | no change | no change |
